The results in this text go back to PMC4914246.

The chains behind the UniProt entries cited, without tags or fusion partners. Residues count along the entry.
UniProt Q9UPY5: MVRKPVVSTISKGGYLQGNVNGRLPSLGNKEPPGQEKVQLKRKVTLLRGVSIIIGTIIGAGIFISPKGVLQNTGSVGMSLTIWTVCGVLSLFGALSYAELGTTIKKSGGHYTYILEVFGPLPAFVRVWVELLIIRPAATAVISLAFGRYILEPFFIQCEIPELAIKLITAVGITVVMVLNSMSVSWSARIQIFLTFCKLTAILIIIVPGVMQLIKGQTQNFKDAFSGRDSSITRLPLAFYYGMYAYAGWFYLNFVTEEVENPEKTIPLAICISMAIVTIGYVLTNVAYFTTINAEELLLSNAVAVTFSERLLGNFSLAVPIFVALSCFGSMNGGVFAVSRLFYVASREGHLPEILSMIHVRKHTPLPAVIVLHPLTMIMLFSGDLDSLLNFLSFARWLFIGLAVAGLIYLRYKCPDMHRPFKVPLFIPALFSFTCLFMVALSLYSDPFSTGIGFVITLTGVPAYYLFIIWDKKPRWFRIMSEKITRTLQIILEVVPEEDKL
UniProt P15941, residues 1098-1255: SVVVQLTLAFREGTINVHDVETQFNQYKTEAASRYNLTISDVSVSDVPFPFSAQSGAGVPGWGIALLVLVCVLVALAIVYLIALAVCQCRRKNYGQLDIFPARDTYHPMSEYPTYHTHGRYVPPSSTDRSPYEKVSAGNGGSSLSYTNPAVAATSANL

No constants are given. Whether binding was seen depends on the method and setting. Binding seen in cells or lysates may run through a third protein. Some results given as binding are weak or reduced against the parent protein; the word gives no strength.

This experiment addresses xCT light chain of the cystine/glutamate transporter (system XC-) (human (endogenous in MDA-MB-468, BT-20 and 293T)) (UniProt Q9UPY5). Kind of experiment: co-IP; lysates of MDA-MB-468 or BT-20 cells precipitated with anti-MUC1-C, anti-xCT or a control IgG; precipitates immunoblotted (anti-MUC1-C, anti-xCT, anti-CD44). Background: In western blotting, separated proteins are transferred to a membrane and probed.

Consider “MUC1 C-terminal subunit (MUC1-C) (from UniProt P15941 1098-1255)”, for which the binding result is “binds”.
